The values that follow come from publication PMC11405755.

No constants are given. Whether binding was seen depends on the method and setting. Binding seen in cells or lysates may run through a third protein. Some entries that bind do so weakly or less than the wild type.

Test [1] addresses MCL-1 (mouse (endogenous in Hoxb8 macrophage progenitors from C56BL/6 bone marrow)) (UniProt P97287). Briefly: co-IP; MCL-1 precipitated with antibody (clone Y37) and Protein G agarose from 1% CHAPS lysates of macrophage progenitors, 4 h at 4 °C; cells untreated or treated with S63845 (5 µM) and/or LPS (1 µg/ml) for 18 h, QVD-OPH (20 µM) in all samples; blots for co-precipitated proteins.

Test [2] shares this target. Briefly: co-IP; MCL-1 precipitated from CHAPS lysates (flowthrough of the A1-IP) of macrophages differentiated for 7 days; cells untreated or treated with S63845 (10 µM) and/or LPS (1 µg/ml) for 6 h; blots for co-precipitated proteins.
Test [3] deals with T1, MCL-1 (mouse (endogenous in Hoxb8 macrophage progenitors from C56BL/6 bone marrow)), P97287.
T1 chain: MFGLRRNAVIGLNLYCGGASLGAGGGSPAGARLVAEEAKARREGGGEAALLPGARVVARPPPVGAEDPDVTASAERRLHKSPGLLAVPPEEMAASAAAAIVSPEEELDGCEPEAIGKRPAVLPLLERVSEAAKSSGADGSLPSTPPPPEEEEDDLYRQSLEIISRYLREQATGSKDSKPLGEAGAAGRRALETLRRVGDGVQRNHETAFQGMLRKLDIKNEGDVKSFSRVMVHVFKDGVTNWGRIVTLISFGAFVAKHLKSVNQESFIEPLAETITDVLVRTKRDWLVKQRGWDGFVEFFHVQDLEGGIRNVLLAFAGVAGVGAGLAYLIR
The test can be described thus: co-IP; MCL-1 precipitated with antibody (clone Y37) and Protein G agarose from 1% CHAPS lysates of macrophage progenitors, 4 h at 4 °C; cells untreated or treated with S63845 (5 µM) and/or LPS (1 µg/ml) for 18 h, QVD-OPH (20 µM) in all samples; blots for co-precipitated proteins. The settings on record: remark: other sources report otherwise.

Test [4] deals with T1, MCL-1 (mouse (endogenous in Hoxb8 …)). The test can be described thus: co-IP; MCL-1 precipitated from CHAPS lysates (flowthrough of the A1-IP) of macrophages differentiated for 7 days; cells untreated or treated with S63845 (10 µM) and/or LPS (1 µg/ml) for 6 h; blots for co-precipitated proteins. The settings on record: remark: other sources report otherwise.

B1: BAK (protein, UniProt O08734 1-209)
chain: MASGQGPGPPKVGCDESPSPSEQQVAQDTEEVFRSYVFYLHQQEQETQGAAAPANPEMDNLPLEPNSILGQVGRQLALIGDDINRRYDTEFQNLLEQLQPTAGNAYELFTKIASSLFKSGISWGRVVALLGFGYRLALYVYQRGLTGFLGQVTCFLADIILHHYIARWIAQRGGWVAALNFRRDPILTVMVIFGVVLLGQFVVHRFFRS
With B1, the binding entry in test [1] is “binds”.

B2: NOXA (protein, UniProt Q9JM54 1-103)
chain: MPGRKARRNAPVNPTRAELPPEFAAQLRKIGDKVYCTWSAPDITVVLAQMPGKSQKSRMRSPSPTRVPADLKDECAQLRRIGDKVNLRQKLLNLISKLFNLVT
In the case of B2, the binding entry in test [1] and in test [2] was “binds” throughout.

B3: BIM, O54918 1-196 (protein)
chain: MAKQPSDVSSECDREGGQLQPAERPPQLRPGAPTSLQTEPQGNPDGEGDRCPHGSPQGPLAPPASPGPFATRSPLFIFVRRSSLLSRSSSGYFSFDTDRSPAPMSCDKSTQTPSPPCQAFNHYLSAMASIRQSQEEPEDLRPEIRIAQELRRIGDEFNETYTRRVFANDYREAEDHPQMVILQLLRFIFRLVWRRH
Turning to B3, the binding entry in test [3] and in test [4] was “binds” throughout.
